PubChem BioAssay AID504764 | Drosophila RNAi Screening Center, 2011

Purpose: 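Genome-wide screen for regulators of Notch-driven gene expression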 (primary screen)
Cells: Drosophila Kc167 cells
Reagent: long dsRNA against Drosophila genes
Duration: about 5 days (4 days dsRNA, then 24 h after transfection)
Treatment: transfection of constitutively active membrane-tethered Notch lacking the extracellular domain, read 24 h later
Detection: 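Light from a Notch-responsive E(spl)m3 luciferase reporter under active Notch, with control-promoter and no-Notch reporter wells to normalise; raw counts from paired wells a and b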
Scale: induced reporter light, run 1, well a and induced reporter light, run 1, well b: higher = more light from the Notch target reporter with active Notch; control promoter light, run 1, well a and control promoter light, run 1, well b: higher = more light from the viral control promoter (cell number, transfection, viability); uninduced reporter light, run 1, well a: higher = more light from the Notch target reporter without active Notch
Hit rule: 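Wells with low control signal or poorly matching duplicates excluded; duplicates averaged; per source plate, z beyond ±2 for induced/control log2 ratio or beyond ±1.8 for induced/uninduced marks a hit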
Meaning of the calls: active = modifier hit (raised or lowered Notch signal); inactive = not a hit
In all, the deposit lists about 22,000 reagents; shown is an unselected part of those with a known target gene and a result. Of all reagents, 403 (1.9%) got an active call. 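Unnormalised raw counts per well; ratio z-scores behind the hit calls and whether each hit raises or lowers signal are not deposited.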 Reagents against one gene are numbered here. A plus sign joins genes that one reagent is predicted to hit. Not stated in the record: the amount of reagent.

target | reagent no. | induced reporter light, run 1, well a | induced reporter light, run 1, well b | control promoter light, run 1, well a | control promoter light, run 1, well b | uninduced reporter light, run 1, well a | call
Gnpat | 1 | 2.15e5 | 1.91e5 | 2.24e5 | 2.17e5 | 14795 | inactive
Ccdc85 | 1 | 48535 | 38090 | 20015 | 21210 | 7950 | inactive
CG12682 | 1 | 1.01e5 | 1.08e5 | 2.11e5 | 1.80e5 | 7460 | inactive
CG10730 | 1 | 52220 | 50130 | 59520 | 55660 | 4535 | inactive
CG6576 | 1 | 2.01e5 | 2.14e5 | 2.40e5 | 2.41e5 | 11495 | inactive
ND-19 | 1 | 1.69e5 | 1.54e5 | 1.42e5 | 1.44e5 | 10980 | inactive
CG7849 | 1 | 1.43e5 | 1.34e5 | 1.41e5 | 1.40e5 | 9445 | inactive
ksr | 1 | 79680 | 79915 | 48120 | 47060 | 6950 | inactive
mRpS25 | 1 | 1.08e5 | 82935 | 1.21e5 | 97305 | 11895 | inactive
koi | 1 | 2.54e5 | 2.19e5 | 3.23e5 | 3.44e5 | 22455 | inactive
CG9130 + CG9133 | 1 | 1.02e5 | 85620 | 1.05e5 | 1.61e5 | 4970 | inactive
CG9130 + CG9133 | 2 | 81775 | 87970 | 1.50e5 | 1.49e5 | 6770 | inactive
CG15699 (retired record) | 1 | 22855 | 44550 | 45125 | 46095 | 4288 | inactive
sip2 | 1 | 41920 | 40150 | 49065 | 37080 | 3288 | inactive
CG15368 | 1 | 40365 | 34740 | 48580 | 56175 | 3660 | inactive
Jhbp7 | 1 | 1.76e5 | 1.53e5 | 2.03e5 | 1.78e5 | 13465 | inactive
CG13722 | 1 | 1.85e5 | 2.05e5 | 2.04e5 | 2.16e5 | 9280 | inactive
CG13722 | 2 | – | – | – | – | – | inactive
alt | 1 | 1.68e5 | 1.55e5 | 2.04e5 | 1.81e5 | 14135 | inactive
Rift | 1 | 1.40e5 | 1.34e5 | 2.27e5 | 1.73e5 | 8705 | inactive
CG13685 | 1 | 3.04e5 | 2.20e5 | 3.09e5 | 1.86e5 | 14900 | inactive
CG6749 | 1 | 2.16e5 | 1.44e5 | 1.93e5 | 1.87e5 | 9732 | inactive
mRpS9 | 1 | 1.43e5 | 1.51e5 | 1.59e5 | 1.45e5 | 9880 | inactive
mRpS9 | 2 | 95085 | 1.12e5 | 1.09e5 | 83770 | 12820 | inactive
Rab4 + CG42239 | 1 | 1.01e5 | 1.10e5 | 1.40e5 | 1.40e5 | 8700 | inactive
hfw | 1 | 1.31e5 | 94960 | 2.07e5 | 2.13e5 | 7770 | inactive
trus | 1 | 46195 | 34770 | 55530 | 41405 | 4740 | inactive
CG13791 (retired record) | 1 | 1.61e5 | 1.44e5 | 1.86e5 | 2.05e5 | 9800 | inactive
HP1c | 1 | 1.61e5 | 1.62e5 | 2.43e5 | 2.20e5 | 14665 | inactive
CG10513 | 1 | 2.08e5 | 2.40e5 | 2.42e5 | 2.51e5 | 12910 | inactive
grim | 1 | 38090 | 34720 | 21530 | 21470 | 4520 | inactive
CG31103 | 1 | – | – | – | – | – | inactive
ddbt | 1 | 2.35e5 | 2.00e5 | 1.94e5 | 1.68e5 | 16565 | inactive
f | 1 | 1.99e5 | 1.51e5 | 2.38e5 | 2.40e5 | 13905 | inactive
f | 2 | 86390 | 1.09e5 | 1.69e5 | 1.65e5 | 13185 | inactive
f | 3 | 78510 | 55465 | 67450 | 61130 | 10160 | inactive
Cdk5alpha | 1 | 1.16e5 | 1.47e5 | 66615 | 82110 | 18925 | inactive
mRpS26 | 1 | 1.26e5 | 1.10e5 | 1.65e5 | 1.44e5 | 6610 | inactive
PGRP-SB1 | 1 | 1.49e5 | 1.27e5 | 2.27e5 | 1.82e5 | 7375 | inactive
eIF3b | 1 | 7255 | 5205 | 7245 | 6625 | 1495 | inactive
GramD1B | 1 | 1.23e5 | 1.35e5 | 1.85e5 | 1.41e5 | 11300 | inactive
GramD1B | 2 | 66590 | 70880 | 43495 | 46770 | 6015 | inactive
CG13369 | 1 | 1.12e5 | 89410 | 1.56e5 | 1.94e5 | 8320 | inactive
CG31743 + CG34313 | 1 | 2.31e5 | 2.22e5 | 2.53e5 | 2.64e5 | 16300 | inactive
CG31743 + CG34313 | 2 | 1.90e5 | 1.87e5 | 1.98e5 | 2.09e5 | 14900 | inactive
ND-24 | 1 | 98360 | 98265 | 96880 | 46820 | 8095 | inactive
CG8028 | 1 | 80950 | 1.10e5 | 1.28e5 | 1.22e5 | 11500 | inactive
CG31058 (retired record) | 1 | 6980 | 6695 | 11705 | 12325 | 2700 | inactive
CG8173 | 1 | 67355 | 67955 | 1.04e5 | 78625 | 11120 | inactive
CG16865 | 1 | 1.39e5 | 1.74e5 | 1.66e5 | 1.70e5 | 11330 | inactive
